According to PubChem BioAssay AID256 (DTP/NCI, 2004):
The list does not hold the whole screen: its compounds were picked by chemical class. Other doses and runs of a compound may be missing. T/C is the treated group as % of the vehicle group. Where survival is the endpoint, this PubChem deposit counts one and a half times the control or more as active, and values a quarter to a half above the control carry no call in these data; other NCI protocols may use other cut-offs. Schedules are NCI's codes, taken here to give the interval after Q, in days (D) or hours (H), and the number of doses after X. Some T/C values are marked as having no survivor count here; that says nothing about deaths at the dose. Some doses were run more than once; the values are given in rising order. Marks such as (2×) count equal records among those shown.

Test system: CD2F1 mice, L1210 leukemia ip, survival T/C
Test: NCI In Vivo Anticancer Drug Screen. Data for tumor model L1210 Leukemia (intraperitoneal) in CD2F1 (CDF1) mice
Conditions: T/C endpoint: mean survival time, higher T/C = longer survival
Procedure: The antitumor activity of compounds was measured in mice bearing transplantable tumors. Survival or tumor size were measured and the results are expressed as the measurement made in the treated group (T) divided by the measurement made in the vehicle treated control group (C). The tumor model used in this assay is L1210 Leukemia (intraperitoneal) in CD2F1 (CDF1) mice

CN(CCCl)CCCl
T/C (dose: 0.01 mg/kg/injection, schedule: Q03HX024 (ip), vehicle: water): 110 % of control [survivor count not shown] | T/C (dose: 0.03 mg/kg/injection, schedule: Q01DX009 (ip), vehicle: water): 107 % of control [survivor count not shown] | T/C (dose: 0.03 mg/kg/injection, schedule: Q03HX016 (ip), vehicle: water): 121 % of control [survivor count not shown] | T/C (dose: 0.03 mg/kg/injection, schedule: Q03HX024 (ip), vehicle: water): 121 % of control [survivor count not shown] | T/C (dose: 0.06 mg/kg/injection, schedule: Q01DX009 (ip), vehicle: saline): 145 % of control [survivor count not shown] | T/C (dose: 0.06 mg/kg/injection, schedule: Q01DX009 (ip), vehicle: water): 112 % of control [survivor count not shown] | T/C (dose: 0.06 mg/kg/injection, schedule: Q03HX008 (ip), vehicle: water): 121 % of control [survivor count not shown] | T/C (dose: 0.06 mg/kg/injection, schedule: Q03HX016 (ip), vehicle: water): 126 % of control [survivor count not shown] | T/C (dose: 0.06 mg/kg/injection, schedule: Q03HX024 (ip), vehicle: water): 125 % of control [survivor count not shown] | T/C (dose: 0.1 mg/kg/injection, schedule: Q01DX009 (ip), vehicle: saline): 151 % of control [survivor count not shown] | T/C (dose: 0.12 mg/kg/injection, schedule: Q01DX009 (ip), vehicle: saline): 223 % of control [survivor count not shown] | T/C (dose: 0.13 mg/kg/injection, schedule: Q01DX001 (ip), vehicle: saline): 114 % of control [survivor count not shown] | T/C (dose: 0.13 mg/kg/injection, schedule: Q01DX005 (iv), vehicle: water): 103 % of control [survivor count not shown] | T/C (dose: 0.13 mg/kg/injection, schedule: Q01DX007 (ip), vehicle: saline): 147 % of control [survivor count not shown] | T/C (dose: 0.13 mg/kg/injection, schedule: Q01DX009 (ip), vehicle: saline): 120 [survivor count not shown] and 153 % of control [survivor count not shown] | T/C (dose: 0.13 mg/kg/injection, schedule: Q01DX009 (ip), vehicle: water): 122 % of control [survivor count not shown] | T/C (dose: 0.13 mg/kg/injection, schedule: Q01DX009 (sc), vehicle: water): 100 % of control [survivor count not shown] | T/C (dose: 0.13 mg/kg/injection, schedule: Q03DX003 (ip), vehicle: saline): 132 % of control [survivor count not shown] | T/C (dose: 0.13 mg/kg/injection, schedule: Q03HX008 (ip), vehicle: water): 138 % of control [survivor count not shown] | T/C (dose: 0.13 mg/kg/injection, schedule: Q03HX016 (ip), vehicle: water): 126 % of control [survivor count not shown] | T/C (dose: 0.13 mg/kg/injection, schedule: Q03HX024 (ip), vehicle: water): 129 % of control [survivor count not shown] | T/C (dose: 0.13 mg/kg/injection, schedule: Q04DX003 (ip), vehicle: saline): 127 % of control [survivor count not shown] | T/C (dose: 0.13 mg/kg/injection, schedule: Q04DX003 (ip), vehicle: water): 121 % of control [survivor count not shown] | T/C (dose: 0.19 mg/kg/injection, schedule: Q01DX009 (ip), vehicle: saline): 151 % of control [survivor count not shown] | T/C (dose: 0.19 mg/kg/injection, schedule: Q04DX003 (ip), vehicle: saline): 131 % of control [survivor count not shown] | T/C (dose: 0.2 mg/kg/injection, schedule: Q01DX001 (ip), vehicle: none): 119 % of control [survivor count not shown] | T/C (dose: 0.2 mg/kg/injection, schedule: Q01DX001 (ip), vehicle: saline): 119 % of control [survivor count not shown] | T/C (dose: 0.25 mg/kg/injection, schedule: Q01DX001 (ip), vehicle: saline): 120 % of control [survivor count not shown] | T/C (dose: 0.25 mg/kg/injection, schedule: Q01DX005 (iv), vehicle: water): 102 % of control [survivor count not shown] | T/C (dose: 0.25 mg/kg/injection, schedule: Q01DX007 (ip), vehicle: saline): 156 % of control [survivor count not shown] | T/C (dose: 0.25 mg/kg/injection, schedule: Q01DX009 (ip), vehicle: saline): 135 [survivor count not shown], 150 [survivor count not shown], 276 % of control [survivor count not shown] | T/C (dose: 0.25 mg/kg/injection, schedule: Q01DX009 (ip), vehicle: water): 119 % of control [survivor count not shown] | T/C (dose: 0.25 mg/kg/injection, schedule: Q01DX009 (sc), vehicle: water): 105 % of control [survivor count not shown] | T/C (dose: 0.25 mg/kg/injection, schedule: Q03DX003 (ip), vehicle: saline): 120 % of control [survivor count not shown] | T/C (dose: 0.25 mg/kg/injection, schedule: Q03HX008 (ip), vehicle: water): 125 % of control [survivor count not shown] | T/C (dose: 0.25 mg/kg/injection, schedule: Q03HX016 (ip), vehicle: water): 126 % of control [survivor count not shown] | T/C (dose: 0.25 mg/kg/injection, schedule: Q03HX024 (ip), vehicle: water): 125 % of control [survivor count not shown] | T/C (dose: 0.25 mg/kg/injection, schedule: Q04DX003 (ip), vehicle: saline, evaluated on day 30): 127 % of control | T/C (dose: 0.25 mg/kg/injection, schedule: Q04DX003 (ip), vehicle: saline, evaluation day not shown): 141 % of control [survivor count not shown] | T/C (dose: 0.25 mg/kg/injection, schedule: Q04DX003 (ip), vehicle: water): 124 % of control [survivor count not shown] | T/C (dose: 0.25 mg/kg/injection, schedule: Q08DX002 (ip), vehicle: water): 121 % of control [survivor count not shown] | T/C (dose: 0.3 mg/kg/injection, schedule: Q04DX003 (ip), vehicle: saline): 121 % of control [survivor count not shown] | T/C (dose: 0.38 mg/kg/injection, schedule: Q01DX001 (ip), vehicle: DMSO): 115 % of control [survivor count not shown] | T/C (dose: 0.38 mg/kg/injection, schedule: Q01DX001 (ip), vehicle: Klucel (hydroxypropylcellulose) (HPC)): 124 [survivor count not shown] and 125 % of control [survivor count not shown] | T/C (dose: 0.38 mg/kg/injection, schedule: Q01DX001 (ip), vehicle: other): 119 % of control [survivor count not shown] | T/C (dose: 0.38 mg/kg/injection, schedule: Q01DX001 (ip), vehicle: saline): 129 [survivor count not shown] (2×) and 131 % of control [survivor count not shown] | T/C (dose: 0.38 mg/kg/injection, schedule: Q01DX009 (ip), vehicle: saline): 151 % of control [survivor count not shown] | T/C (dose: 0.38 mg/kg/injection, schedule: Q04DX003 (ip), vehicle: saline): 132 % of control [survivor count not shown] | T/C (dose: 0.4 mg/kg/injection, schedule: Q01DX001 (ip), vehicle: none): 132 % of control [survivor count not shown] | T/C (dose: 0.4 mg/kg/injection, schedule: Q01DX001 (ip), vehicle: saline): 132 % of control [survivor count not shown] | T/C (dose: 0.45 mg/kg/injection, schedule: Q04DX003 (ip), vehicle: saline): 121 % of control [survivor count not shown] | T/C (dose: 0.5 mg/kg/injection, schedule: Q01DX001 (ip), vehicle: saline): 112 [survivor count not shown] (2×) and 130 % of control [survivor count not shown] | T/C (dose: 0.5 mg/kg/injection, schedule: Q01DX001 (ip), vehicle: water): 124 % of control [survivor count not shown] | T/C (dose: 0.5 mg/kg/injection, schedule: Q01DX001 (iv), vehicle: water): 107 % of control [survivor count not shown] | T/C (dose: 0.5 mg/kg/injection, schedule: Q01DX001 (sc), vehicle: water): 104 % of control [survivor count not shown] | T/C (dose: 0.5 mg/kg/injection, schedule: Q01DX005 (iv), vehicle: water): 103 % of control [survivor count not shown] | T/C (dose: 0.5 mg/kg/injection, schedule: Q01DX007 (ip), vehicle: saline): 162 % of control [survivor count not shown] | T/C (dose: 0.5 mg/kg/injection, schedule: Q01DX009 (ip), vehicle: saline): 122 [survivor count not shown], 165 [survivor count not shown], 211 % of control [survivor count not shown] | T/C (dose: 0.5 mg/kg/injection, schedule: Q01DX009 (ip), vehicle: water): 132 % of control [survivor count not shown] | T/C (dose: 0.5 mg/kg/injection, schedule: Q01DX009 (oral), vehicle: water): 102 % of control [survivor count not shown] | T/C (dose: 0.5 mg/kg/injection, schedule: Q01DX009 (sc), vehicle: water): 112 % of control [survivor count not shown] | T/C (dose: 0.5 mg/kg/injection, schedule: Q03DX003 (ip), vehicle: saline): 135 % of control [survivor count not shown] | T/C (dose: 0.5 mg/kg/injection, schedule: Q03HX008 (ip), vehicle: water): 120 % of control [survivor count not shown] | T/C (dose: 0.5 mg/kg/injection, schedule: Q03HX016 (ip), vehicle: water): 133 % of control [survivor count not shown] | T/C (dose: 0.5 mg/kg/injection, schedule: Q04DX003 (ip), vehicle: saline with Tween-80): 124 % of control [survivor count not shown] | T/C (dose: 0.5 mg/kg/injection, schedule: Q04DX003 (ip), vehicle: saline, evaluated on day 30): 147 % of control | T/C (dose: 0.5 mg/kg/injection, schedule: Q04DX003 (ip), vehicle: saline, evaluation day not shown): 145 % of control [survivor count not shown] | T/C (dose: 0.5 mg/kg/injection, schedule: Q04DX003 (ip), vehicle: water): 128 % of control [survivor count not shown] | T/C (dose: 0.5 mg/kg/injection, schedule: Q08DX002 (ip), vehicle: water): 121 % of control [survivor count not shown] | T/C (dose: 0.67 mg/kg/injection, schedule: Q04DX003 (ip), vehicle: saline): 120 % of control [survivor count not shown] | T/C (dose: 0.75 mg/kg/injection, schedule: Q01DX001 (ip), vehicle: DMSO): 132 % of control [survivor count not shown] | T/C (dose: 0.75 mg/kg/injection, schedule: Q01DX001 (ip), vehicle: Klucel (hydroxypropylcellulose) (HPC)): 124 [survivor count not shown] and 140 % of control [survivor count not shown] | T/C (dose: 0.75 mg/kg/injection, schedule: Q01DX001 (ip), vehicle: other): 128 % of control [survivor count not shown] | T/C (dose: 0.75 mg/kg/injection, schedule: Q01DX001 (ip), vehicle: saline): 131 [survivor count not shown], 135 [survivor count not shown], 139 % of control [survivor count not shown]
